Results taken from patent US7488592.
Results are given in words; binding and its absence hold for the method and conditions named. For some of these results: In cells and extracts the contact can be indirect. Some binding calls cover weakened binding; strength is not graded here.

By UniProt entry, the sequences of proteins in these tests, tags left out. Where a name states a change or a piece, a line headed by the entry shows the natural chain unless it says otherwise.
UniProt Q7Z5G4: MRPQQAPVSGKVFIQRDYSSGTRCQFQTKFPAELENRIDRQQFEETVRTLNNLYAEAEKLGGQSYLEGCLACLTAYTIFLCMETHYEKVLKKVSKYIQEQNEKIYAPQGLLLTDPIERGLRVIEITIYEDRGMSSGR
UniProt Q9Y397: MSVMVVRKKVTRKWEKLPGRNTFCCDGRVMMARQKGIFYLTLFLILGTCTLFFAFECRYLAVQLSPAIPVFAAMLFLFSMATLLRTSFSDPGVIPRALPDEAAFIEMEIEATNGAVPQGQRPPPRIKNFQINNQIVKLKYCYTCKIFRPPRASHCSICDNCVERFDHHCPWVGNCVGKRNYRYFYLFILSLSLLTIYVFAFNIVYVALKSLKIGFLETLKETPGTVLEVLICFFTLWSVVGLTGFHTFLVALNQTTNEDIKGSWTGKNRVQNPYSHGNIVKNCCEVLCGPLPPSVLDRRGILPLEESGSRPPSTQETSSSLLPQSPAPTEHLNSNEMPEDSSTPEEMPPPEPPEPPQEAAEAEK

Experiments:
GST-hErf4 (human) [1] = assay: sequential Ni and glutathione affinity chromatography from SF9 membrane extract, Coomassie gel and anti-myc/anti-GST blots
GST-hErf4 (human) [2] = assay: co-purification from insect cells (data not shown); complex then purified by metal chelate and glutathione agarose
[3] = target: Flag-hErf4 (hE4-1) (human) (UniProt Q7Z5G4); assay: co-immunoprecipitation from HEK-293 cell extracts (anti-GFP or anti-Flag IP, immunoblot)
[4] = target: Flag-hErf4 (hE4-1) (human) (UniProt Q7Z5G4); assay: co-immunoprecipitation from HEK-293 whole cell extracts, reciprocal anti-GFP and anti-Flag IP and blots

| Substance | binding (GST-hErf4 (human) [1]) | binding (GST-hErf4 (human) [2]) | binding [3] | binding [4] |
| --- | --- | --- | --- | --- |
| hErf2-Myc-His (from UniProt Q9Y397 1-364) (enzyme) | binds | binds | – | – |
| hErf2-GFP (hE2-1/DHHC9) (from UniProt Q9Y397 1-364) (enzyme) | – | – | binds | binds |
